Measurements from patent US20070275419A1.
These are yes or no findings as the source states them, for the method shown. Some entries that bind do so weakly or less than the wild type.

By UniProt entry, the sequences of proteins in these tests, tags left out.
UniProt P26718: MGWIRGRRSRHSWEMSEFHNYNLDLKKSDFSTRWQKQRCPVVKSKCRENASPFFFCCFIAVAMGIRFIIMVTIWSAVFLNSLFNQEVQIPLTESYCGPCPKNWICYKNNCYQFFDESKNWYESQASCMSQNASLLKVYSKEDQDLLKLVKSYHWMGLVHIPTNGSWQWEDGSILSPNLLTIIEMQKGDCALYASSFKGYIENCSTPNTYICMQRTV

Assays:
[1] = molecular target: NKG2D receptor expressed on the surface of mouse Ba/F3 cells (human) (UniProt P26718); assay: FACS on Ba/F3-NKG2D cells, blocking of anti-NKG2D staining by RL5 supernatant
[2] = molecular target: NKG2D receptor expressed on the surface of mouse Ba/F3 cells (human) (UniProt P26718); assay: FACS on Ba/F3-NKG2D cells, binding inferred from loss of anti-NKG2D staining after incubation with RL5 supernatant

B1: RL5 protein (secreted, in the supernatant of 293T cells transfected with pCDEF3-RL5) (ligand)
chain: DPHSLCYDITVIPKFRPGPRWCAVQGQVDEKTFLHYDCGSKTVTPVSPLGKKLNVTTAWKAQNPVLREVVDILTEQLLDIQLENYIPKEPLTLQARMSCEQKAEGHGSGSWQLSFDGQIFLLFDSENRMWTTVHPGARKMKEKWENDKDMTMSFHYISMGDCTGWLEDFLMGMDSTLEPSAGGTV
binding [1]: binds | binding [2]: binds
